{
  "source": "the supplement of paper PMC8728848",
  "test_in_all_cases": "glycan array binding signal (z-score within array); higher = stronger binding",
  "details_in_all_cases": "glycan notation: IUPAC condensed, linker removed",
  "key": {"[1]": {"target": "Fuc(a1-2)[GalNAc(a1-3)]Gal(b1-3)GlcNAc(b1-6)GalNAc", "summary_of_the_method": "(§1)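 Negative Z-scores can be read as non-binding. The Z-score is calculated within each array and then averaged across arrays of one protein sequence at different concentrations or buffers and across linkers. Arrays, 3228 in all, were curated from the Consortium for Functional Glycomics database and kept only where the protein sequence was available.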"}, "[2]": {"target": "Fuc(a1-2)[GalNAc(a1-3)]Gal(b1-4)Glc", "summary_of_the_method": "as §1"}, "[3]": {"target": "Fuc(a1-2)[GalNAc(a1-3)]Gal(b1-4)GlcNAc", "summary_of_the_method": "as §1"}, "[4]": {"target": "Fuc(a1-2)[GalNAc(a1-3)]Gal(b1-4)GlcNAc(b1-2)Man", "summary_of_the_method": "as §1"}, "[5]": {"target": "Fuc(a1-2)[GalNAc(a1-3)]Gal(b1-4)GlcNAc(b1-2)Man(a1-3)[Fuc(a1-2)[GalNAc(a1-3)]Gal(b1-4)GlcNAc(b1-2)Man(a1-6)]Man(b1-4)GlcNAc(b1-4)GlcNAc", "summary_of_the_method": "as §1"}, "[6]": {"target": "Fuc(a1-2)[GalNAc(a1-3)]Gal(b1-4)GlcNAc(b1-2)Man(a1-3)[Fuc(a1-2)[GalNAc(a1-3)]Gal(b1-4)GlcNAc(b1-2)Man(a1-6)]Man(b1-4)GlcNAc(b1-4)[Fuc(a1-6)]GlcNAc", "summary_of_the_method": "as §1"}, "[7]": {"target": "Fuc(a1-2)[GalNAc(a1-3)]Gal(b1-4)GlcNAc(b1-3)Gal(b1-4)GlcNAc", "summary_of_the_method": "as §1"}, "[8]": {"target": "Fuc(a1-2)[GalNAc(a1-3)]Gal(b1-4)GlcNAc(b1-3)Gal(b1-4)GlcNAc(b1-3)Gal(b1-4)GlcNAc", "summary_of_the_method": "as §1"}, "[9]": {"target": "Fuc(a1-2)[GalNAc(a1-3)]Gal(b1-4)GlcNAc(b1-3)GalNAc", "summary_of_the_method": "as §1"}, "[10]": {"target": "Fuc(a1-2)[GalNAc(a1-3)]Gal(b1-4)GlcNAc(b1-3)[Fuc(a1-2)[GalNAc(a1-3)]Gal(b1-4)GlcNAc(b1-6)]GalNAc", "summary_of_the_method": "as §1"}, "[11]": {"target": "Fuc(a1-2)[GalNAc(a1-3)]Gal(b1-4)GlcNAc(b1-6)GalNAc", "summary_of_the_method": "as §1"}, "[12]": {"target": "Fuc(a1-2)[GalNAc(a1-3)]Gal(b1-4)[Fuc(a1-3)]GlcNAc", "summary_of_the_method": "as §1"}, "[13]": {"target": "Fuc(a1-2)[GalNAc(a1-3)]Gal(b1-4)[Fuc(a1-3)]GlcNAc(b1-3)GalNAc", "summary_of_the_method": "as §1"}, "[14]": {"target": "Fuc(a1-2)[GalNAc(a1-4)]Gal(b1-4)GlcNAc", "summary_of_the_method": "as §1"}, "[15]": {"target": "Fuc(a1-2)[GalNAc(b1-3)]Gal", "summary_of_the_method": "as §1"}, "[16]": {"target": "Fuc(a1-3)GlcNAc", "summary_of_the_method": "as §1"}, "[17]": {"target": "Fuc(a1-3)[Gal(b1-4)]Glc6S", "summary_of_the_method": "as §1"}, "[18]": {"target": "Fuc(a1-3)[Gal(b1-4)]GlcNAc", "summary_of_the_method": "as §1"}, "[19]": {"target": "Fuc(a1-3)[Gal(b1-4)]GlcNAc(b1-2)Man", "summary_of_the_method": "as §1"}, "[20]": {"target": "Fuc(a1-3)[Gal(b1-4)]GlcNAc(b1-2)Man(a1-3)[Fuc(a1-3)[Gal(b1-4)]GlcNAc(b1-2)Man(a1-6)]Man(b1-4)GlcNAc(b1-4)GlcNAc", "summary_of_the_method": "as §1"}, "[21]": {"target": "Fuc(a1-3)[Gal(b1-4)]GlcNAc(b1-2)Man(a1-3)[Fuc(a1-3)[Gal(b1-4)]GlcNAc(b1-2)Man(a1-6)]Man(b1-4)GlcNAc(b1-4)[Fuc(a1-6)]GlcNAc", "summary_of_the_method": "as §1"}, "[22]": {"target": "Fuc(a1-3)[Gal(b1-4)]GlcNAc(b1-3)Gal(b1-3)[Fuc(a1-4)]GlcNAc", "summary_of_the_method": "as §1"}, "[23]": {"target": "Fuc(a1-3)[Gal(b1-4)]GlcNAc(b1-3)Gal(b1-4)[Fuc(a1-3)]GlcNAc", "summary_of_the_method": "as §1"}, "[24]": {"target": "Fuc(a1-3)[Gal(b1-4)]GlcNAc(b1-3)Gal(b1-4)[Fuc(a1-3)]GlcNAc(b1-3)Gal(b1-4)[Fuc(a1-3)]GlcNAc", "summary_of_the_method": "as §1"}, "[25]": {"target": "Fuc(a1-3)[Gal(b1-4)]GlcNAc(b1-3)GalNAc", "summary_of_the_method": "as §1"}, "[26]": {"target": "Fuc(a1-3)[Gal(b1-4)]GlcNAc(b1-6)GalNAc", "summary_of_the_method": "as §1"}, "[27]": {"target": "Fuc(a1-3)[Gal(b1-4)]GlcNAc(b1-6)[Gal(b1-3)GlcNAc(b1-3)]Gal(b1-4)Glc", "summary_of_the_method": "as §1"}, "[28]": {"target": "Fuc(a1-3)[Gal(b1-4)]GlcNAc6S", "summary_of_the_method": "as §1"}, "[29]": {"target": "Fuc(a1-3)[Gal3S(b1-4)]Glc", "summary_of_the_method": "as §1"}, "[30]": {"target": "Fuc(a1-3)[Gal3S(b1-4)]GlcNAc", "summary_of_the_method": "as §1"}, "[31]": {"target": "Fuc(a1-3)[Gal3S(b1-4)]GlcNAc6S", "summary_of_the_method": "as §1"}, "[32]": {"target": "Fuc(a1-3)[GalNAc(b1-4)]GlcNAc", "summary_of_the_method": "as §1"}, "[33]": {"target": "Fuc(a1-3)[GalNAc(b1-4)]GlcNAc6S", "summary_of_the_method": "as §1"}, "[34]": {"target": "Fuc(a1-4)GlcNAc", "summary_of_the_method": "as §1"}, "[35]": {"target": "Fuc(b1-3)GlcNAc", "summary_of_the_method": "as §1"}, "[36]": {"target": "Gal(a1-2)Gal", "summary_of_the_method": "as §1"}, "[37]": {"target": "Gal(a1-3)Gal", "summary_of_the_method": "as §1"}, "[38]": {"target": "Gal(a1-3)Gal(b1-3)GlcNAc", "summary_of_the_method": "as §1"}, "[39]": {"target": "Gal(a1-3)Gal(b1-3)GlcNAc(b1-2)Man", "summary_of_the_method": "as §1"}, "[40]": {"target": "Gal(a1-3)Gal(b1-3)GlcNAc(b1-2)Man(a1-3)[Gal(a1-3)Gal(b1-3)GlcNAc(b1-2)Man(a1-6)]Man(b1-4)GlcNAc(b1-4)GlcNAc", "summary_of_the_method": "as §1"}, "[41]": {"target": "Gal(a1-3)Gal(b1-3)GlcNAc(b1-3)GalNAc", "summary_of_the_method": "as §1"}, "[42]": {"target": "Gal(a1-3)Gal(b1-3)GlcNAc(b1-6)GalNAc", "summary_of_the_method": "as §1"}, "[43]": {"target": "Gal(a1-3)Gal(b1-3)[Fuc(a1-4)]GlcNAc(b1-2)Man(a1-3)[Gal(a1-3)Gal(b1-3)[Fuc(a1-4)]GlcNAc(b1-2)Man(a1-6)]Man(b1-4)GlcNAc(b1-4)GlcNAc", "summary_of_the_method": "as §1"}, "[44]": {"target": "Gal(a1-3)Gal(b1-4)Glc", "summary_of_the_method": "as §1"}, "[45]": {"target": "Gal(a1-3)Gal(b1-4)GlcNAc", "summary_of_the_method": "as §1"}},
  "note": "The list shows a part of the results.",
  "data": [
    {"binder": "Pwp6 (Candida glabrata) (protein) MGSSHHHHHHSSGLVPRGSHMASANLPKLTNICQIPDNVKKTSGFKGEIRRIGLFPPGGDYTYLLKFPSTGSTASDTISLTTKPQLSTSGWFPSLFGHTYFIKADLLVYMVAYFVPTETGEYTFKLVNSDDAAVMYVGNPSAFPCGSIDTWPEPRKEDINVCDKISASTKLYMEKGLAYPVRLVWYNGGGDGQFNAQFIDPSGTTHTDWNGYVWQYDACTDCDYK", "values": [
      {"measurement": "glycan array binding signal (z-score)", "setting": "[1]", "result": -0.126},
      {"measurement": "glycan array binding signal (z-score)", "setting": "[2]", "result": -0.626},
      {"measurement": "glycan array binding signal (z-score)", "setting": "[3]", "result": -0.481},
      {"measurement": "glycan array binding signal (z-score)", "setting": "[4]", "result": -0.201},
      {"measurement": "glycan array binding signal (z-score)", "setting": "[5]", "result": -0.155},
      {"measurement": "glycan array binding signal (z-score)", "setting": "[6]", "result": 0.167},
      {"measurement": "glycan array binding signal (z-score)", "setting": "[7]", "result": 0.506},
      {"measurement": "glycan array binding signal (z-score)", "setting": "[8]", "result": 0.091},
      {"measurement": "glycan array binding signal (z-score)", "setting": "[9]", "result": 0.542},
      {"measurement": "glycan array binding signal (z-score)", "setting": "[10]", "result": -0.116},
      {"measurement": "glycan array binding signal (z-score)", "setting": "[11]", "result": -0.042},
      {"measurement": "glycan array binding signal (z-score)", "setting": "[12]", "result": -0.128},
      {"measurement": "glycan array binding signal (z-score)", "setting": "[13]", "result": 0.217},
      {"measurement": "glycan array binding signal (z-score)", "setting": "[14]", "result": -0.729},
      {"measurement": "glycan array binding signal (z-score)", "setting": "[15]", "result": -0.786},
      {"measurement": "glycan array binding signal (z-score)", "setting": "[16]", "result": -0.741},
      {"measurement": "glycan array binding signal (z-score)", "setting": "[17]", "result": 1.1},
      {"measurement": "glycan array binding signal (z-score)", "setting": "[18]", "result": -0.796},
      {"measurement": "glycan array binding signal (z-score)", "setting": "[19]", "result": -0.434},
      {"measurement": "glycan array binding signal (z-score)", "setting": "[20]", "result": -0.18},
      {"measurement": "glycan array binding signal (z-score)", "setting": "[21]", "result": -0.155},
      {"measurement": "glycan array binding signal (z-score)", "setting": "[22]", "result": -0.022},
      {"measurement": "glycan array binding signal (z-score)", "setting": "[23]", "result": 0.02},
      {"measurement": "glycan array binding signal (z-score)", "setting": "[24]", "result": -0.24},
      {"measurement": "glycan array binding signal (z-score)", "setting": "[25]", "result": -0.157},
      {"measurement": "glycan array binding signal (z-score)", "setting": "[26]", "result": 0.007},
      {"measurement": "glycan array binding signal (z-score)", "setting": "[27]", "result": -0.265},
      {"measurement": "glycan array binding signal (z-score)", "setting": "[28]", "result": 0.39},
      {"measurement": "glycan array binding signal (z-score)", "setting": "[29]", "result": -0.358},
      {"measurement": "glycan array binding signal (z-score)", "setting": "[30]", "result": -0.595},
      {"measurement": "glycan array binding signal (z-score)", "setting": "[31]", "result": -0.723},
      {"measurement": "glycan array binding signal (z-score)", "setting": "[32]", "result": -0.34},
      {"measurement": "glycan array binding signal (z-score)", "setting": "[33]", "result": 0.126},
      {"measurement": "glycan array binding signal (z-score)", "setting": "[34]", "result": -0.712},
      {"measurement": "glycan array binding signal (z-score)", "setting": "[35]", "result": -0.751},
      {"measurement": "glycan array binding signal (z-score)", "setting": "[36]", "result": -0.745},
      {"measurement": "glycan array binding signal (z-score)", "setting": "[37]", "result": 0.776},
      {"measurement": "glycan array binding signal (z-score)", "setting": "[38]", "result": -0.768},
      {"measurement": "glycan array binding signal (z-score)", "setting": "[39]", "result": -0.557},
      {"measurement": "glycan array binding signal (z-score)", "setting": "[40]", "result": 0.254},
      {"measurement": "glycan array binding signal (z-score)", "setting": "[41]", "result": -0.268},
      {"measurement": "glycan array binding signal (z-score)", "setting": "[42]", "result": -0.137},
      {"measurement": "glycan array binding signal (z-score)", "setting": "[43]", "result": 1.15},
      {"measurement": "glycan array binding signal (z-score)", "setting": "[44]", "result": -0.487},
      {"measurement": "glycan array binding signal (z-score)", "setting": "[45]", "result": -0.684}
    ]}
  ]
}
